{"sequences": {"note": "Chains of the proteins cited; added tags and fusions are not shown.", "UniProt Q00987": "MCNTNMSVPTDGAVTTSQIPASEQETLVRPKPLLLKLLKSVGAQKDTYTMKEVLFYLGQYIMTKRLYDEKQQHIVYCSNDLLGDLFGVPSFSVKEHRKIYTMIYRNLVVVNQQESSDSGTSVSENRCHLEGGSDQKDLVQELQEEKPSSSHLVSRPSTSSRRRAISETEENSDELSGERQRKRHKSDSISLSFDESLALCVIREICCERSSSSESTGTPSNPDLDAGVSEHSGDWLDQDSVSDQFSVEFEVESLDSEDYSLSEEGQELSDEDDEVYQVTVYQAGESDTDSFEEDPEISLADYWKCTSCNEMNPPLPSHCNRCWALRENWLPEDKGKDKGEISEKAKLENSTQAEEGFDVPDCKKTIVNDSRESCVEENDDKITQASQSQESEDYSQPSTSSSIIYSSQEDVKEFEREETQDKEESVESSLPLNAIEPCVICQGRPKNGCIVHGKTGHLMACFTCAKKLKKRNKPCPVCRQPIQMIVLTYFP"}, "source": "paper PMC10398932", "binders": {"B1": {"name": "Germ cell-specific gene 2 (GSG2) (protein, UniProt Q8TF76 1-798)", "chain": "MAASLPGPGSRLFRTYGAADGRRQRRPGREAAQWFPPQDRRRFFNSSGSSDASIGDPSQSDDPDDPDDPDFPGSPVRRRRRRPGGRVPKDRPSLTVTPKRWKLRARPSLTVTPRRLGLRARPPQKCSTPCGPLRLPPFPSRDSGRLSPDLSVCGQPRDGDELGISASLFSSLASPCPGSPTPRDSVISIGTSACLVAASAVPSGLHLPEVSLDRASLPCSQEEATGGAKDTRMVHQTRASLRSVLFGLMNSGTPEDSEFRADGKNMRESCCKRKLVVGNGPEGPGLSSTGKRRATGQDSCQERGLQEAVRREHQEASVPKGRIVPRGIDRLERTRSSRKSKHQEATETSLLHSHRFKKGQKLGKDSFPTQDLTPLQNVCFWTKTRASFSFHKKKIVTDVSEVCSIYTTATSLSGSLLSECSNRPVMNRTSGAPSSWHSSSMYLLSPLNTLSISNKKASDAEKVYGECSQKGPVPFSHCLPTEKLQRCEKIGEGVFGEVFQTIADHTPVAIKIIAIEGPDLVNGSHQKTFEEILPEIIISKELSLLSGEVCNRTEGFIGLNSVHCVQGSYPPLLLKAWDHYNSTKGSANDRPDFFKDDQLFIVLEFEFGGIDLEQMRTKLSSLATAKSILHQLTASLAVAEASLRFEHRDLHWGNVLLKKTSLKKLHYTLNGKSSTIPSCGLQVSIIDYTLSRLERDGIVVFCDVSMDEDLFTGDGDYQFDIYRLMKKENNNRWGEYHPYSNVLWLHYLTDKMLKQMTFKTKCNTPAMKQIKRKIQEFHRTMLNFSSATDLLCQHSLFK"}}, "biological_target": "E3 ubiquitin ligase mouse double minute 2 (MDM2) (human (endogenous in MCF-7 and MDA-MB-231)) (UniProt Q00987)", "experiment": "co-IP; anti-GSG2 or anti-MDM2 antibody on Protein A/G beads, incubated with cell lysate, washed 3 times, western blot; forward and reverse; also MCF-7 and MDA-MB-231 cells treated with or without CHR-6494", "note": "Results are given in words; binding and its absence hold for the method and conditions named. Binding seen in cells or lysates may run through a third protein. Some binding calls cover weakened binding; strength is not graded here.", "data": [{"binder": "B1", "values": [{"measurement": "binding", "value": "binds"}]}]}
